Data as given in PubChem BioAssay AID504774 (Drosophila RNAi Screening Center, 2011).
Assay: 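Fly genes whose loss alters survival after alkylation damage to DNA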 (primary screen). System: Drosophila Kc167 cells. Reagents: long dsRNA against Drosophila genes, about 0.25 µg dsRNA per well. Timing: about 6 days: 3 days knock-down, then 3 days with or without MMS. Challenge: methyl methanesulphonate 0.004% (w/v) for 3 days after knock-down. Read-out: 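ATP-dependent luminescence as a measure of live cells in MMS-exposed wells, quantile normalised within each plate, with replicate values also given as a mean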. Reading the numbers: mean viability with MMS and viability with MMS: higher = more surviving cells after MMS.
In all, the deposit lists about 23,000 reagents; this is an unselected part of those that have a named target and a result. 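Values are quantile-normalised luminescence on an arbitrary scale; higher means more cells surviving MMS.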 Reagents against one gene are numbered here. A plus sign joins genes that one reagent is predicted to hit. Not all columns of the deposit are shown.

With alpha-Cat, what was measured?
mean viability with MMS: 3.52e6; viability with MMS, replicate 1: 3.98e6

With CG12182, what was measured?
mean viability with MMS: 3.30e6; viability with MMS, replicate 1: 3.78e6

For Gld2 #1, what was measured?
mean viability with MMS: 2.91e6; viability with MMS, replicate 1: 3.59e6

How did the screen score Gld2 #2?
mean viability with MMS: 3.80e6; viability with MMS, replicate 1: 4.33e6

Which result is listed for rdog?
mean viability with MMS: 3.75e6; viability with MMS, replicate 1: 4.28e6

With Cyp6v1, how do the results read?
mean viability with MMS: 3.61e6; viability with MMS, replicate 1: 4.13e6

For ap, what does the deposit list?
mean viability with MMS: 3.34e6; viability with MMS, replicate 1: 3.70e6

With Vps29, how do the results read?
mean viability with MMS: 3.71e6; viability with MMS, replicate 1: 4.15e6

For CG14926, what was measured?
mean viability with MMS: 3.48e6; viability with MMS, replicate 1: 3.80e6

With Ptp52F, what does the deposit list?
mean viability with MMS: 3.50e6; viability with MMS, replicate 1: 3.93e6

What is on record for CG7382?
mean viability with MMS: 3.35e6; viability with MMS, replicate 1: 3.63e6

With CG6660, what does the deposit list?
mean viability with MMS: 3.55e6; viability with MMS, replicate 1: 4.00e6

For Prosalpha2, what does the deposit list?
mean viability with MMS: 3.24e6; viability with MMS, replicate 1: 3.82e6

What is on record for Adf1 #1?
mean viability with MMS: 3.56e6; viability with MMS, replicate 1: 3.96e6

With Adf1 #2, how do the results read?
mean viability with MMS: 3.34e6; viability with MMS, replicate 1: 3.60e6

For CG11007, what does the deposit list?
mean viability with MMS: 3.57e6; viability with MMS, replicate 1: 4.00e6

For Cyp4aa1, how do the results read?
mean viability with MMS: 3.45e6; viability with MMS, replicate 1: 3.89e6

For nrm #1, how do the results read?
mean viability with MMS: 3.35e6; viability with MMS, replicate 1: 3.88e6

With nrm #2, what does the deposit list?
mean viability with MMS: 3.34e6; viability with MMS, replicate 1: 3.83e6

With nrm #3, how do the results read?
mean viability with MMS: 3.45e6; viability with MMS, replicate 1: 3.89e6

With cv, what was measured?
mean viability with MMS: 3.62e6; viability with MMS, replicate 1: 4.06e6

For Rab4 + CG42239, what does the deposit list?
mean viability with MMS: 3.50e6; viability with MMS, replicate 1: 3.92e6

Which result is listed for tkv #1?
mean viability with MMS: 3.40e6; viability with MMS, replicate 1: 4.08e6

With tkv #2, what does the deposit list?
mean viability with MMS: 3.55e6; viability with MMS, replicate 1: 4.03e6

How did the screen score tkv #3?
mean viability with MMS: 3.55e6; viability with MMS, replicate 1: 4.04e6

For CR11386 + CR33222, how do the results read?
mean viability with MMS: 3.51e6; viability with MMS, replicate 1: 3.94e6

How did the screen score Papss?
mean viability with MMS: 3.55e6; viability with MMS, replicate 1: 4.09e6

For Su(var)2-10, what does the deposit list?
mean viability with MMS: 3.35e6; viability with MMS, replicate 1: 3.75e6

What did the screen give for lbm?
mean viability with MMS: 3.63e6; viability with MMS, replicate 1: 4.12e6

How did the screen score Sfp26Ad?
mean viability with MMS: 3.64e6; viability with MMS, replicate 1: 4.16e6

With Pgant5, what was measured?
mean viability with MMS: 3.53e6; viability with MMS, replicate 1: 4.02e6

With put, what does the deposit list?
mean viability with MMS: 3.50e6; viability with MMS, replicate 1: 4.05e6

For CG3085, what was measured?
mean viability with MMS: 3.70e6; viability with MMS, replicate 1: 4.12e6

With Mmp2 #1, what does the deposit list?
mean viability with MMS: 3.58e6; viability with MMS, replicate 1: 3.94e6

Which result is listed for Mmp2 #2?
mean viability with MMS: 3.97e6; viability with MMS, replicate 1: 4.49e6

Which result is listed for SppL?
mean viability with MMS: 3.73e6; viability with MMS, replicate 1: 4.23e6

Which result is listed for CG8508?
mean viability with MMS: 3.69e6; viability with MMS, replicate 1: 4.12e6

For svp #1, what does the deposit list?
mean viability with MMS: 3.59e6; viability with MMS, replicate 1: 4.15e6

How did the screen score svp #2?
mean viability with MMS: 2.56e6; viability with MMS, replicate 1: 3.60e6

For svp #3, how do the results read?
mean viability with MMS: 3.72e6; viability with MMS, replicate 1: 4.10e6

What is on record for CG10257?
mean viability with MMS: 3.54e6; viability with MMS, replicate 1: 4.14e6

How did the screen score Pdk?
mean viability with MMS: 3.70e6; viability with MMS, replicate 1: 4.27e6

With CG32225, what does the deposit list?
mean viability with MMS: 3.47e6; viability with MMS, replicate 1: 3.89e6

What did the screen give for B9d1?
mean viability with MMS: 3.58e6; viability with MMS, replicate 1: 4.08e6

With CG12909, how do the results read?
mean viability with MMS: 3.51e6; viability with MMS, replicate 1: 4.01e6
